This is an account of results in article PMC3979850.

Amino acid sequences for entries named in this document (tags omitted). Residues count along the entry.
UniProt P42262, residues 25-883: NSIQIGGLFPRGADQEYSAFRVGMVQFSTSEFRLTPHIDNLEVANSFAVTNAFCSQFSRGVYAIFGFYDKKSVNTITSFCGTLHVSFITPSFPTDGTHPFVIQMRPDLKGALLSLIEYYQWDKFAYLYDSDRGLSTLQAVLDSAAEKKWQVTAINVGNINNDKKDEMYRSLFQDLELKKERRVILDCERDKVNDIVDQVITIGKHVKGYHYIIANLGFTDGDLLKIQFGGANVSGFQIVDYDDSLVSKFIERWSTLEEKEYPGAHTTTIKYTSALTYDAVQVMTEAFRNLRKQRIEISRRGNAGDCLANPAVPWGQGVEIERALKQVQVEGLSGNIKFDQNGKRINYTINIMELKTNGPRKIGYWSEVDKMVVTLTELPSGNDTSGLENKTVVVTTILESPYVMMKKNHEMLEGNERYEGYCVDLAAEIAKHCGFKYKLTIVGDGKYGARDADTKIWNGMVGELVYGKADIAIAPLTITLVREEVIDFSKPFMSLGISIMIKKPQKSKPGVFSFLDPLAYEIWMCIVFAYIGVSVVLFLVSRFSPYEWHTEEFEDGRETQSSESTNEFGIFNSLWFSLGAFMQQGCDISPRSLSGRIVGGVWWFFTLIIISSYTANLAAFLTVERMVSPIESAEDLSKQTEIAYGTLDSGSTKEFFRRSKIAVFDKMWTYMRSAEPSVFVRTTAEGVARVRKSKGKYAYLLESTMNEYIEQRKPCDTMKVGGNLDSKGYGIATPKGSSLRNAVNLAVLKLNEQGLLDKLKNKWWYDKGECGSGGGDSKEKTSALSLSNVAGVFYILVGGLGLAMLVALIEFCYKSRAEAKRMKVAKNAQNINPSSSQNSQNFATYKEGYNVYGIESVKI
UniProt P42263, residues 29-894: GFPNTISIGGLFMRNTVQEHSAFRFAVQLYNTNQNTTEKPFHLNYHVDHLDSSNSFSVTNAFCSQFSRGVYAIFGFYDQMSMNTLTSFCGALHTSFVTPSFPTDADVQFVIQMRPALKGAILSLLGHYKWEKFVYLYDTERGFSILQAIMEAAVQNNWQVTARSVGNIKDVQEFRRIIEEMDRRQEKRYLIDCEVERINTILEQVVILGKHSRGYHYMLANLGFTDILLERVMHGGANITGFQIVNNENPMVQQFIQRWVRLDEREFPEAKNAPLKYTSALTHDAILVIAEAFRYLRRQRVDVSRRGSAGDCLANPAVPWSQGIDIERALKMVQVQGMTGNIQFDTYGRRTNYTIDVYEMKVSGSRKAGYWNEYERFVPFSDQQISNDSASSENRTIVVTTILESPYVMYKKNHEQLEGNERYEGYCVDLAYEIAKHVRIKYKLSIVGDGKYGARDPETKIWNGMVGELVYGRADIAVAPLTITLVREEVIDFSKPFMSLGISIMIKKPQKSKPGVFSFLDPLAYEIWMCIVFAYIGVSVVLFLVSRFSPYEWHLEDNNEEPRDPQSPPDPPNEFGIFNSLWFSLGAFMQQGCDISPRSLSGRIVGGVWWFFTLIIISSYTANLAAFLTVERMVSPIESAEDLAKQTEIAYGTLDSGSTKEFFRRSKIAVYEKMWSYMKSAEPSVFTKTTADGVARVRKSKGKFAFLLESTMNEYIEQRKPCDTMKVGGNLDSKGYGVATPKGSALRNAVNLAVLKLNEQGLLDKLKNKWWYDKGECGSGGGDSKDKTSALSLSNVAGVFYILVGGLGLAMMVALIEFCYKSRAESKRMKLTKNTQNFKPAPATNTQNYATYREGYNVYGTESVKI
UniProt P48058, residues 21-902: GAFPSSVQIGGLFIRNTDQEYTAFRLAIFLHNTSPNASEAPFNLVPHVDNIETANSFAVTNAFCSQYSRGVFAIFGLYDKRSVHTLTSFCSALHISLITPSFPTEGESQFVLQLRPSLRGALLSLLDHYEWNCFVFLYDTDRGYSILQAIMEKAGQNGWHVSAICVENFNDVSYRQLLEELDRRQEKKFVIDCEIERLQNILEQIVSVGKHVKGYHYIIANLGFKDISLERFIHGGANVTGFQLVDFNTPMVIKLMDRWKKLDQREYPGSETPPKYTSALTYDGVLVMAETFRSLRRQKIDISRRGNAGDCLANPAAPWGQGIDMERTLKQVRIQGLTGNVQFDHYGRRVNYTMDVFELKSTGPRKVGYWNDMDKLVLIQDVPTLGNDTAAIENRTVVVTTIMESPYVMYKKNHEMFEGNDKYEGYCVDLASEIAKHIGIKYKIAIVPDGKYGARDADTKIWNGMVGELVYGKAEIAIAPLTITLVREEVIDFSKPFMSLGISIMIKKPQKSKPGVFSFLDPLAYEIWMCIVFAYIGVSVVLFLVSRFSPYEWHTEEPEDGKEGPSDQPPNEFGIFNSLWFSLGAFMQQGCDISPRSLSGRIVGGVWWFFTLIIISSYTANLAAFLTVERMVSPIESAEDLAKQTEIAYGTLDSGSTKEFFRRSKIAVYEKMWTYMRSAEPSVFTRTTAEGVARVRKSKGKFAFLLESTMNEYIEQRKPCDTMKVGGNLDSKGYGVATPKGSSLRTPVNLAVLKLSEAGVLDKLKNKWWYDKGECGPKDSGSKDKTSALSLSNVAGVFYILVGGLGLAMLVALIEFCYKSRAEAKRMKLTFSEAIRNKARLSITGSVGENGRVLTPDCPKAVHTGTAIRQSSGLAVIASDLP

In assay [1] the target is AMPA receptor subunit GluA2 (human (endogenous in frontal cortex)) (UniProt P42262). Nature of the assay: co-IP; GluA2 immunoprecipitated (anti-GluA2 on sheep anti-mouse IgG Dynabeads, 30 min RT) from 400 ug human frontal cortex lysate solubilised in 1% Triton X-100 plus 1% SDS; Western blot for GluA1, GluA3, GluA4. In general terms: Immunoblotting shows a protein as a band on a membrane.

Assay [2] shares this target. Nature of the assay: co-IP; GluA2 immunoprecipitated (anti-GluA2 on sheep anti-mouse IgG Dynabeads, 30 min RT) from 400 ug human frontal cortex lysate solubilised in 1% Triton X-100 or in 1% Triton X-100 plus 0.5% SDS; Western blot for GluA1, GluA3, GluA4.

No constants are given. Whether binding was seen depends on the method and setting. In cells and extracts the contact can be indirect. Some results given as binding are weak or reduced against the parent protein; the word gives no strength.

As for “AMPA receptor subunit GluA3 (from UniProt P42263 29-894)”, the binding entry in assay [1] is recorded as “no binding (condition: with 1% Triton X-100 plus 1% SDS)”; in assay [2], “binds”.

Consider “AMPA receptor subunit GluA4 (from UniProt P48058 21-902)”, for which the values for the binding result in assay [1] and in assay [2] were “no binding (condition: with 1% Triton X-100 plus 1% SDS)” and “binds”, respectively.
